A short description of the assay: qHTS Assay for Lipid Storage Modulators in Drosophila S3 Cells.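 As to cell number change: cells counted by Cell Tracker Red CMTPX staining in the red channel.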 The following applies: BODIPY lipid droplet fluorescence, 18-24 h; for cell number change: measured here: cell count max response, cells fed with added oleic acid. The method in brief:
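Laser-scanning cytometry quantifies lipid droplet accumulation (500–530 nm total intensity; droplet/cell object ratio) in oleic acid-fed (400 uM added) Drosophila S3 cells treated with a concentration series. 20 uM Triacsin C defined 100% inhibition.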
For orientation: qHTS replaces the single test concentration by a dilution series.

[1] abbreviates: measured here: cell number channel AC50, cells fed with added oleic acid.
[2] abbreviates: measured here: lipid fluorescence (Fed channel) AC50, cells fed with added oleic acid.

This is one part of the list. These are further read-outs of the screen, such as a control signal, another cell line or another target. No call is given for them. Most of these compounds were active or inconclusive in the main read-out, so they are no random draw. The note in brackets gives the kind of curve behind each potency; many fits are weak.

With `C/C(=N\O)C(C)(C)Nc1ccc(Br)cc1`, the cell number change was found to be 18.1%. On the same count and under the same terms, next, `CCOc1ccc(NC(=O)N(CCN(C)C)C(C)c2ccncc2)cc1` (stereo not drawn): 19.1%.

What is called AC50 is the concentration giving half of the maximal activity seen. `O=C(Nc1ccccn1)NC1CCS(=O)(=O)C1` (stereo not drawn): the cell number change is -23.3%. Also, under setting [1], the AC50 is 3.66 µM [falling, partial curve]. Further, the concentration at half-maximal activity (AC50) under setting [2] is 2.91 µM [falling, partial curve]. On to `Cc1cc(C(=O)Nc2ccccc2C(=O)O)c(C)o1`, for which the cell number change turned out to be 44.9%. Regarding `CCOc1ccc(OCc2ccc(C(=O)N3CCCC3)o2)cc1`, the cell number change was 71.1%. For the same compound, under setting [1], the AC50 was 5.8 µM [rising, full curve]. As to `COc1ccc(CC(=O)NC2CCSc3ccccc32)cc1OC` (stereo not drawn), the AC50 under setting [1] was 0.00411 µM [falling, full curve, poor fit]. Turning to `CC(C)c1ccc(NC2CCCN(C(=O)CN3CCOC3=O)C2)cc1` (stereo not drawn), the cell number change is 41.6%. The AC50 under setting [1] is 32.6 µM [rising, single point]. For the same compound, the AC50 under setting [2] was 14.6 µM [rising, partial curve, poor fit]. As for `O=C1/C(=C/c2ccc(F)cc2)SC(=S)N1Nc1ncc(C(F)(F)F)cc1Cl`, the cell number change is -36.2%. Besides, under setting [1], the AC50 is 29.1 µM [falling, single point]. Moreover, under setting [2], the AC50 is 20.6 µM [falling, single point]. For `COC(=O)c1ccc(COc2cc(C)ccc2C)o1`, the cell number change was 45.4%. Besides, the concentration at half-maximal activity (AC50) under setting [1] was 1.3 µM [rising, full curve]. With `S=C(NCc1cccs1)Nc1ccc(Br)cc1Cl`, the cell number change is -32.5%. The AC50 under setting [2] is 3.66 µM [falling, single point]. In the case of `Cc1cc(OCc2cc(C(=O)NC3CCC3)no2)cc(C)c1Cl`, the cell number change was 16.4%. Same read-out and setting: next, `CCc1ccc(NC(=O)c2cnn3ccccc23)cc1`: -16%. On to `CCc1cccc(NC(=O)c2snc3c(=O)[nH]cnc23)c1`, for which the cell number change was 26.6%. Also, the AC50 under setting [1] is 4.11 µM [rising, full curve, poor fit]. Also, the AC50 under setting [2] was 0.461 µM [rising, single point]. With `O=C(CS(=O)(=O)c1cn(CC(=O)N2CCCC2)c2ccccc12)Nc1ccccc1F`, the cell number change was -18.8%. In addition, the AC50 under setting [1] is 0.366 µM [rising, full curve]. The concentration at half-maximal activity (AC50) under setting [2] was 29.1 µM [rising, single point]. On to `CCOc1ccc(N(CC(=O)OC)S(=O)(=O)c2ccc3c(c2)n(C)c(=O)c(=O)n3C)cc1`, for which the cell number change is -0.844%. Moreover, the AC50 under setting [1] is 0.651 µM [rising, full curve, poor fit]. As to `OCC[C@H]1C[C@@H](O)[C@H](O)[C@@]2(CCCc3ccccc3O2)O1`, the cell number change is -10.3%. Moreover, under setting [2], the AC50 was 0.013 µM [rising, full curve, poor fit]. As for `Cc1cc(C)c(NC(=O)c2cccs2)c(C)c1NC(=O)c1cccs1`, the cell number change is -38.1%. Besides, under setting [1], the AC50 is 11.6 µM [falling, partial curve, poor fit]. Further, under setting [2], the AC50 was 2.31 µM [falling, partial curve]. Consider `COC(=O)C(CCSC)NC(=O)CNS(=O)(=O)c1ccc(F)cc1` (stereo not drawn), for which the cell number change turned out to be 17.7%. The AC50 under setting [2] was 0.206 µM [rising, full curve, poor fit]. On to `CC(=O)Nc1ccc(NC(=O)C(NS(=O)(=O)c2ccc3c(c2)OCCO3)C(C)C)cc1` (stereo not drawn), for which the cell number change is -2.57%. Also, the AC50 under setting [2] was 1.64 µM [falling, single point]. For the compound `O=C(C1CCOCC1)N1CCCC(N2CCN(c3cccc(Cl)c3)CC2)C1` (stereo not drawn), the cell number change was -2.36%. Further, the AC50 under setting [2] was 29.1 µM [rising, single point]. Take `CCN(CC)CCNC(=O)c1ccc(NC(=O)C2CC(=O)N(CCc3ccc(OC)c(OC)c3)C2)cc1` (stereo not drawn): the cell number change is -3.5%. Further, the AC50 under setting [2] is 13 µM [falling, single point]. On to `O=C(NCCCN1CCCCC1)c1ccc2c(c1)ncn2C1CCCC1`, for which the cell number change was determined as 11.1%. For the same compound, the AC50 under setting [2] was 29.1 µM [rising, single point]. With `CC(=O)Nc1ccc(NCc2cccs2)cc1`, the cell number change was -7.42%. As for `CC(=O)c1ccc(N2CCN(CC(=O)NCc3ccccc3)CC2)cc1`, the cell number change amounted to 28%. In addition, under setting [2], the AC50 is 29.1 µM [rising, single point]. As to `CC1(C)OC(=O)C(=Cc2ccc(-c3ccc(Cl)c(C(=O)O)c3)o2)C(=O)O1`, the AC50 under setting [2] is 6.51 µM [rising, single point]. Take `CSC1=NCCN1S(=O)(=O)c1ccc(NC(C)=O)cc1`: the cell number change stood at 4.15%.

Turning to `Cc1ncsc1CCC(=O)N1CCCC(Nc2ccc(C(C)C)cc2)C1` (stereo not drawn), the cell number change was determined as 24%. Moreover, under setting [1], the AC50 is 2.59 µM [rising, full curve, poor fit]. Under setting [2], the AC50 was 2.91 µM [rising, full curve]. As for `COCCn1cnnc1SCC(=O)Nc1cccc(S(=O)(=O)N2CCCCCC2)c1`, the cell number change came to 4.83%. Besides, under setting [2], the AC50 was 29.1 µM [falling, single point]. Regarding `O=C(COc1ccc2c(c1)oc(=O)c1ccccc12)N[C@@H](Cc1ccccc1)C(=O)O`, the cell number change turned out to be 23.3%. Moreover, the AC50 under setting [1] is 0.146 µM [rising, full curve, poor fit]. For the same compound, the AC50 under setting [2] is 29.1 µM [rising, single point]. On to `O=C(CCS(=O)(=O)c1ccc(Br)cc1)NCCc1ccc(Cl)cc1`, for which the cell number change came out at 12.4%. For the same compound, under setting [2], the half-maximal activity concentration (AC50) was 0.146 µM [rising, full curve, poor fit]. As for `Cc1ccc(S(=O)(=O)NCC(=O)N(CC(=O)NCC2CCCO2)C2CCCC2)cc1` (stereo not drawn), the cell number change is 65.1%. Besides, the AC50 under setting [1] is 20.6 µM [rising, single point].

For the compound `Cc1[nH][nH]c(=O)c1C(c1ccc(O)c([N+](=O)[O-])c1)c1c(C)[nH][nH]c1=O`, the cell number change is 10.4%. The AC50 under setting [2] is 16.4 µM [falling, single point]. Turning to `COc1ccc(C2C(C#N)=C(C)NC3=C2C(=O)CC(C)(C)C3)c(OC)c1` (stereo not drawn), the AC50 under setting [2] was 0.731 µM [falling, single point]. Take `Cc1cc(C)nc(Nc2ncc(O)n2-c2ccccc2)n1`: the cell number change stood at 14.2%. Further, the AC50 under setting [2] is 18.4 µM [rising, single point]. Turning to `CS(=O)(=O)c1ccc(Cl)c(C(=O)O)c1`, the cell number change is -30.6%. In addition, under setting [1], the AC50 is 0.231 µM [falling, full curve, poor fit]. Under setting [2], the AC50 was 1.16 µM [falling, full curve].

For `Cc1ccc(-c2cnc(-c3ccncc3)o2)cc1`, the cell number change is -12.7%. Further, under setting [1], the AC50 was 0.82 µM [rising, single point]. The concentration at half-maximal activity (AC50) under setting [2] is 2.91 µM [rising, partial curve]. Turning to `CCOC(=O)[C@H]1[C@H]2COc3cc(OC)ccc3[C@@H]2N2C(=O)CN(Cc3ccco3)C(=O)[C@@]12C`, the cell number change was determined as 12.7%. The AC50 under setting [2] is 29.1 µM [rising, single point].

On to `CC1(C)CC(=O)C2=C(C1)OC(c1ccc(O)cc1)C(C#N)=C2N` (stereo not drawn), for which the cell number change was -18.3%. Further, under setting [2], the AC50 is 29.1 µM [falling, single point]. For `CCc1cccc(NC(=O)CCCn2nc(CC)n3c(cc4occc43)c2=O)c1`, under setting [2], the AC50 was 16.4 µM [falling, partial curve]. Regarding `O=C(Nc1cccc(S(=O)(=O)C(F)F)c1)c1ccc(Cl)c(S(=O)(=O)N2CCOCC2)c1`, the AC50 under setting [2] was 0.517 µM [rising, full curve]. With `O=C(Nc1ccccc1)c1ccc2c(c1)OCCCO2`, the cell number change was found to be 30.1%.

Take `Cc1cc(C)cc(N(C(=O)c2csnn2)C(C(=O)NC2CCCCC2)c2cccnc2)c1` (stereo not drawn): the cell number change came out at 29%. As for `COc1ccccc1CC(=O)NNS(=O)(=O)c1ccc([N+](=O)[O-])cc1`, the cell number change amounted to 20.1%. The concentration at half-maximal activity (AC50) under setting [2] is 0.13 µM [rising, full curve, poor fit]. For `O=C(NN=C1CCCCCCCCCCC1)c1ccccc1F`, the cell number change was -2.44%. The AC50 under setting [2] was 25.9 µM [rising, single point].

In the case of `Cc1nnc(SCC(=O)Nc2ncc3c(n2)CCCC3=O)s1`, the cell number change was -12.5%. Moreover, the AC50 under setting [2] is 0.0058 µM [falling, full curve, poor fit]. Turning to `CC(C)C(C(=O)Nc1ccncc1)c1ccc(Cl)cc1` (stereo not drawn), the cell number change was -30.3%. Under setting [1], the AC50 is 23.1 µM [falling, single point].

For `CN(CCO)CC(O)Cn1cnc2c1c(=O)n(C)c(=O)n2C` (stereo not drawn) (tested in a mixture with another compound), the cell number change was determined as 6.75%. The AC50 under setting [2] is 0.651 µM [rising, full curve, poor fit]. As to `CCOC(=O)c1[nH]c(C)c(C(=O)N2CCN(c3cccc(Cl)c3)CC2)c1C`, the half-maximal activity concentration (AC50) under setting [2] is 6.51 µM [falling, single point]. Take `O=C1NCCCC1C(=O)N1CCN(C(=O)c2ccco2)CC1` (stereo not drawn): the cell number change turned out to be 3.22%. The AC50 under setting [2] was 0.82 µM [falling, full curve]. Consider `O=c1cc(N=Nc2ccc(Cl)cc2)[nH]c(=O)[nH]1`, for which the cell number change was -35.5%. Also, under setting [1], the AC50 was 2.31 µM [falling, full curve, poor fit]. Moreover, the AC50 under setting [2] is 0.731 µM [falling, full curve].

As for `O=C(N/N=C/c1c[nH]c2ccccc12)c1ccn(Cc2ccc(Cl)cc2)n1`, the cell number change was -29.2%.

Consider `Nn1c(SCC(=O)Nc2cccc(S(N)(=O)=O)c2)nnc1C1CC1`, for which the cell number change is -18.6%. Turning to `CNC(=O)NC(=O)C(c1ccccc1)N(C)CC1COc2ccccc2O1` (stereo not drawn), the cell number change was 33.9%. Further, the AC50 under setting [2] was 2.91 µM [rising, single point]. With `CCNC(=S)NNC(=O)c1ccc2ncccc2c1`, the cell number change came out at 1.2%. Also, under setting [1], the concentration at half-maximal activity (AC50) was 5.8 µM [rising, single point]. Under setting [2], the concentration at half-maximal activity (AC50) was 5.17 µM [rising, single point].

On to `Cc1ccc(S(=O)(=O)Nc2nc3n(n2)C(c2ccc(Cl)cc2)CC(=O)N3)cc1` (stereo not drawn), for which the cell number change is -0.163%. In addition, the AC50 under setting [2] is 7.31 µM [falling, single point]. Consider `COc1ccccc1CNC(=O)c1cc(C(C)C)nc2ccccc12`, for which the cell number change is -1.21%. The half-maximal activity concentration (AC50) under setting [2] was 0.184 µM [rising, full curve, poor fit]. As to `Cc1ccc(-n2ncc3c(SCc4cccnc4)ncnc32)c(C)c1`, the cell number change was -18.3%. Besides, the AC50 under setting [2] is 0.00411 µM [falling, full curve, poor fit]. For `CCCCNC(=O)C(=O)NCCCn1ccnc1`, the cell number change was found to be 40.1%. Besides, under setting [1], the AC50 was 2.06 µM [rising, partial curve]. Further, under setting [2], the AC50 is 23.1 µM [rising, single point]. Consider `CC(=O)c1ccc(S(=O)(=O)NC(=O)NC2CCCCC2)cc1`, for which the cell number change turned out to be 32.9%. Further, the AC50 under setting [1] was 4.11 µM [rising, full curve, poor fit]. For the same compound, the AC50 under setting [2] is 29.1 µM [rising, single point]. `Cc1ccc([C@@H]2CC=C(C(=O)O)CN2S(=O)(=O)c2ccccc2C)cc1`: the cell number change is -13.9%. For the same compound, the AC50 under setting [1] is 4.11 µM [falling, single point]. For the same compound, under setting [2], the AC50 is 3.66 µM [falling, single point].

For the origin of these results see PubChem BioAssay AID2685 (National Center for Advancing Translational Sciences (NCATS), 2010).
